Data source: PubChem BioAssay AID1053208 (Peter MacCallum Cancer Centre, 2014)

- Purpose: 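Genes whose silencing cuts survival of bone tumour cells only with doxorubicin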 (primary screen)
- System: mouse osteosarcoma cells, early-passage culture from an engineered mouse model of fibroblastic bone tumour
- Reagent: siRNA pool against mouse genes, 40 nM
- Duration: about 120 h (48 h before drug, then 72 h with drug)
- Treatment: doxorubicin 100 nM for 72 h, roughly 30-40% inhibitory dose
- Detection: 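Luminescent ATP signal taken as viability with or without 100 nM doxorubicin for 72 h; mean of two wells set against non-targeting siRNA and turned into robust z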
- Scale: viability z-score with doxorubicin: higher = more viable cells under doxorubicin; viability z-score without drug: higher = more viable cells with knock-down alone
- Hit rule: 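a pool counts as active when its viability z-score with doxorubicin is -2 or below and its z-score without drug lies between -2 and 2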
The whole screen tested about 17,000 reagents; this is a part drawn at random. 788 of them (4.7%) were called active. 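Calls rest on z-score classes alone; an extra cut-off of viability at most 70% of control was not applied to them.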 Reagents against one gene are numbered here. Not all columns of the deposit are shown.

Depletion of Lsm14b (LSM family member 14B) resulted in: combined z-score class no change with or without drug; viability z-score with doxorubicin 1.57; viability z-score without drug 0.84; inactive.
Knock-down of Cyp4f18 (cytochrome P450, family 4, subfamily f, polypeptide 18) gave: combined z-score class no change with or without drug; viability z-score with doxorubicin 0.67; viability z-score without drug -0.34; inactive.
Depletion of Scrn1 (secernin 1) resulted in: combined z-score class no change with or without drug; viability z-score with doxorubicin -1.01; viability z-score without drug 1.01; inactive.
With knock-down of Slc15a5, the record shows combined z-score class no change with or without drug; viability z-score with doxorubicin -0.9; viability z-score without drug -0.51; inactive.
With knock-down of Zmat2 (zinc finger, matrin type 2), the record shows combined z-score class no change with or without drug; viability z-score with doxorubicin -0.67; viability z-score without drug 0.17; inactive.
Depletion of Rbm3 (RNA binding motif (RNP1, RRM) protein 3) resulted in: combined z-score class no change with or without drug; viability z-score with doxorubicin -0.9; viability z-score without drug -1.18; inactive.
For Hrh3 (histamine receptor H3), the values are combined z-score class no change with or without drug; viability z-score with doxorubicin -0.11; viability z-score without drug -1.35; inactive.
Depletion of Sf3a1 (splicing factor 3a, subunit 1) resulted in: combined z-score class low cell count with and without drug; viability z-score with doxorubicin -4.5; viability z-score without drug -3.37; inactive.
With knock-down of Pcyox1l (prenylcysteine oxidase 1 like), the record shows combined z-score class no change with or without drug; viability z-score with doxorubicin -0.56; viability z-score without drug 0.51; inactive.
Knock-down of Chpf2 (chondroitin polymerizing factor 2) gave: combined z-score class no change with or without drug; viability z-score with doxorubicin 0.34; viability z-score without drug 1.52; inactive.
For Kdm3b (KDM3B lysine (K)-specific demethylase 3B), the entry reads combined z-score class no change with or without drug; viability z-score with doxorubicin -0.67; viability z-score without drug 0.17; inactive.
Against Or10ag52 (olfactory receptor family 10 subfamily AG member 52) the deposit lists combined z-score class no change with or without drug; viability z-score with doxorubicin 1.46; viability z-score without drug 0.84; inactive.
Silencing of Cdc42se1 (CDC42 small effector 1) gave: combined z-score class no change with or without drug; viability z-score with doxorubicin 0; viability z-score without drug 0.34; inactive.
For Thsd4 (thrombospondin, type I, domain containing 4), the entry reads combined z-score class no change with or without drug; viability z-score with doxorubicin 1.12; viability z-score without drug 0.51; inactive.
Depletion of Or6n1 (olfactory receptor family 6 subfamily N member 1) gave: combined z-score class no change with or without drug; viability z-score with doxorubicin 0.45; viability z-score without drug 0.34; inactive.
Gmfg (glia maturation factor, gamma) showed combined z-score class no change with or without drug; viability z-score with doxorubicin 0.11; viability z-score without drug 0.17; inactive.
Papolb (poly (A) polymerase beta (testis specific)) gave combined z-score class no change with or without drug; viability z-score with doxorubicin 1.12; viability z-score without drug 1.18; inactive.
For Vcam1 (vascular cell adhesion molecule 1), the values are combined z-score class no change with or without drug; viability z-score with doxorubicin 0.34; viability z-score without drug 0.17; inactive.
Zfp353-ps (zinc finger protein 353, pseudogene) gave combined z-score class no change with or without drug; viability z-score with doxorubicin 1.69; viability z-score without drug -0.17; inactive.
For Hmgb3 (high mobility group box 3), the entry reads combined z-score class no change with or without drug; viability z-score with doxorubicin 0.9; viability z-score without drug -0.51; inactive.
Kmt5c (lysine methyltransferase 5C) gave combined z-score class no change with or without drug; viability z-score with doxorubicin 0.9; viability z-score without drug -0.17; inactive.
Klk1b5 (kallikrein 1-related peptidase b5) showed combined z-score class high cell count with and without drug; viability z-score with doxorubicin 2.47; viability z-score without drug 2.19; inactive.
Sphk2 (sphingosine kinase 2) scored combined z-score class high cell count with doxorubicin only; viability z-score with doxorubicin 2.59; viability z-score without drug 0.84; inactive.
Trappc2b (trafficking protein particle complex 2B) scored combined z-score class no change with or without drug; viability z-score with doxorubicin 1.8; viability z-score without drug 1.18; inactive.
Knock-down of Timm10 (translocase of inner mitochondrial membrane 10) resulted in: combined z-score class no change with or without drug; viability z-score with doxorubicin -1.35; viability z-score without drug 0.84; inactive.
Knock-down of Mia2 (MIA SH3 domain ER export factor 2) #1 came out at: combined z-score class no change with or without drug; viability z-score with doxorubicin 0.56; viability z-score without drug 0.84; inactive.
With knock-down of Mia2 (MIA SH3 domain ER export factor 2) #2, the screen gave combined z-score class no change with or without drug; viability z-score with doxorubicin -0.45; viability z-score without drug 0.84; inactive.
After knock-down of Mrps34 (mitochondrial ribosomal protein S34), the screen gave combined z-score class no change with or without drug; viability z-score with doxorubicin -1.57; viability z-score without drug -0.51; inactive.
With knock-down of Hk3 (hexokinase 3), the record shows combined z-score class no change with or without drug; viability z-score with doxorubicin -0.67; viability z-score without drug -1.01; inactive.
Knock-down of Zfp639 (zinc finger protein 639) resulted in: combined z-score class no change with or without drug; viability z-score with doxorubicin 0.34; viability z-score without drug 0.51; inactive.
Rrh (retinal pigment epithelium derived rhodopsin homolog) showed combined z-score class no change with or without drug; viability z-score with doxorubicin 0.22; viability z-score without drug 1.01; inactive.
Depletion of Pcdhb8 (protocadherin beta 8) gave: combined z-score class high cell count with doxorubicin only; viability z-score with doxorubicin 2.59; viability z-score without drug 1.18; inactive.
Paip1 (polyadenylate binding protein-interacting protein 1) showed combined z-score class no change with or without drug; viability z-score with doxorubicin -0.45; viability z-score without drug -0.34; inactive.
Serpinc1 gave combined z-score class no change with or without drug; viability z-score with doxorubicin 0.22; viability z-score without drug 0.51; inactive.
With knock-down of Camkk1 (calcium/calmodulin-dependent protein kinase kinase 1, alpha) the results were combined z-score class no change with or without drug; viability z-score with doxorubicin -0.67; viability z-score without drug -1.18; inactive.
After knock-down of Pcdhb1 (protocadherin beta 1), the screen gave combined z-score class no change with or without drug; viability z-score with doxorubicin 0.34; viability z-score without drug 0.51; inactive.

2 entries already listed, arranged by “viability z-score with doxorubicin”, descending.
Or6n1 (olfactory receptor family 6 subfamily N member 1) → combined z-score class: no change with or without drug; viability z-score with doxorubicin: 0.45; viability z-score without drug: 0.34; outcome: inactive
Gmfg (glia maturation factor, gamma) → combined z-score class: no change with or without drug; viability z-score with doxorubicin: 0.11; viability z-score without drug: 0.17; outcome: inactive
